What all share (assay): two-hybrid; systematic, reciprocal; LexA DNA-binding domain (pMM5) and Gal4 activation domain (pMM6) fusions in mated budding yeast SGY37 and YPH500; X-Gal overlay, scanned after 16 hr
Assay [1] has as its target T1, Schizosaccharomyces pombe Vps25 (ESCRT-II), yeast two-hybrid fusion (Schizosaccharomyces pombe) (UniProt O74967).
T1 sequence: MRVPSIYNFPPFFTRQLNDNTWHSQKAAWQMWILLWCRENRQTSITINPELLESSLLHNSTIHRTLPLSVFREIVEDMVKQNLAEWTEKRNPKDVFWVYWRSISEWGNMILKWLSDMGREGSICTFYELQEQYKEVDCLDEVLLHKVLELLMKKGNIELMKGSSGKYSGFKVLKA

Assay [2] addresses Schizosaccharomyces pombe Vps22 (ESCRT-II), yeast two-hybrid fusion (Schizosaccharomyces pombe).
The target in assay [3] is Schizosaccharomyces pombe Vps32 (ESCRT-III), yeast two-hybrid fusion (Schizosaccharomyces pombe).

No constants are given. Whether binding was seen depends on the method and setting. Binding can be weak; no strength is given. Tags and fused reporters may be left off the sequences shown.

Turning to “Schizosaccharomyces pombe Vps22 (ESCRT-II), yeast two-hybrid fusion”, the binding entry in assay [1] is recorded as “binds”.

B1: Schizosaccharomyces pombe Vps20 (ESCRT-III), yeast two-hybrid fusion (protein, UniProt O94318 1-226)
chain: MGVNSSKINDKDRSILSIKEQRDKLLRYSKRLEKIEQLEIDIARKCLRDSDKRGALRALKAKKLYSGLITQTYGQLGNIEQLLSTIEFTLIQKDVMFGLQEGTNLIRQLQADMPLERVGRICNDRDEAMSYVDEVNDMLQGRMSRDQEDEIQEELDSLIREQEDEKVKDLEKPGFTPSTGVDVLPSVPLKNAIPSLDESFPKAASVSNTSSAVVIDEELRKDPVLG
Take B1: the binding entry in assay [2] and in assay [3] was “binds” throughout.

Values taken from article PMC9192718.
